Numbering of substitutions follows the chain as printed. No constants are given. Whether binding was seen depends on the method and setting. Binding seen in cells or lysates may run through a third protein. Some entries that bind do so weakly or less than the wild type.
How the values were obtained:
[1] = target: CAGE (cancer/testis antigen CAGE), endogenous (human (endogenous in Malme3M^R, SNU387^R)) (UniProt Q86TM3); test: co-IP; endogenous proteins, lysates of Malme3M^R, SNU387^R or Malme3M^R-Taxol cells treated with the indicated peptide (10 uM) for 48 h; antibody 2 ug/ml
[2] = target: GSK3β, endogenous (human (endogenous in Malme3M^R, SNU387^R, Malme3M)) (UniProt P49841); test: co-IP; Malme3M cells transiently transfected with each CAGE construct (1 ug), lysates 48 h after transfection; antibody 2 ug/ml

Chains of the proteins cited; added tags and fusions are not shown.
UniProt P49841: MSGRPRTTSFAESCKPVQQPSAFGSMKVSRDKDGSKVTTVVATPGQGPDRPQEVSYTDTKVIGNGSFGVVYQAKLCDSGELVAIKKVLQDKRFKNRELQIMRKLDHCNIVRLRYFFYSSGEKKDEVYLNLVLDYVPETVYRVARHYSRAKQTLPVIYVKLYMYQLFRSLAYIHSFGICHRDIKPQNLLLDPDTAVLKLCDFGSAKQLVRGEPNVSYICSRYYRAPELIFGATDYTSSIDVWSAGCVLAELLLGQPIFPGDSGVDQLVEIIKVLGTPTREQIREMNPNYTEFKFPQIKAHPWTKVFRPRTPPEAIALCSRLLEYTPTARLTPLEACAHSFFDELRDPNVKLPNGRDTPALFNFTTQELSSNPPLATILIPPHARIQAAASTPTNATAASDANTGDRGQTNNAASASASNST

B1: GTGKT peptide (peptide)
peptide: GTGKT
binding [1]: binds

B2: Full-length mutant CAGE (G-A-G-K-T) (protein, UniProt Q86TM3 1-631)
chain: MSHWAPEWKRAEANPRDLGASWDVRGSRGSGWSGPFGHQGPRAAGSREPPLCFKIKNNMVGVVIGYSGSKIKDLQHSTNTKIQIINGESEAKVRIFGNREMKAKAKAAIETLIRKQESYNSESSVDNAASQTPIGRNLGRNDIVGEAEPLSNWDRIRAAVVECEKRKWADLPPVKKNFYIESKATSCMSEMQVINWRKENFNITCDDLKSGEKRLIPKPTCRFKDAFQQYPDLLKSIIRVGIVKPTPIQSQAWPIILQGIDLIVVAQTGAGKTLSYLMPGFIHLDSQPISREQRNGPGMLVLTPTRELALHVEAECSKYSYKGLKSICIYGGRNRNGQIEDISKGVDIIIATPGRLNDLQMNNSVNLRSITYLVIDEADKMLDMEFEPQIRKILLDVRPDRQTVMTSATWPDTVRQLALSYLKDPMIVYVGNLNLVAVNTVKQNIIVTTEKEKRALTQEFVENMSPNDKVIMFVSQKHIADDLSSDFNIQGISAESLHGNSEQSDQERAVEDFKSGNIKILITTDIVSRGLDLNDVTHVYNYDFPRNIDVYVHRVGYIGRTGKTGTSVTLITQRDSKMAGELIKILDRANQSVPEDLVVMAEQYKLNQQKRHRETRSRKPGQRRKEFYFLS
binding [2]: binds

B3: Full-length point mutant CAGE (G-T-G-A-T) (protein, UniProt Q86TM3 1-631)
chain: B2 chain with A270T, K272A
binding [2]: no binding

B4: Full-length point mutant CAGE (G-T-G-K-A) (protein, UniProt Q86TM3 1-631)
chain: B2 chain with A270T, T273A
binding [2]: no binding

From article PMC5355126
